Values quoted from earlier work, collected in article PMC13237142, “Proteome-wide quantification of inositol pyrophosphate-protein interactions” (Nature Communications, 2026).

details: variety of human cell lines; cited from earlier work

Q: For `O=P(O)(O)O[C@H]1[C@@H](OP(=O)(O)O)[C@H](OP(=O)(O)O)[C@@H](OP(=O)(O)OP(=O)(O)O)[C@H](OP(=O)(O)O)[C@H]1OP(=O)(O)O` [5PP-InsP5, 5-diphosphoinositol pentakisphosphate], which “Levels in mammalian cells” value is on record?
A: The value was 1 to 5 µM.

Q: With `O=P(O)(O)O[C@@H]1[C@@H](OP(=O)(O)O)[C@@H](OP(=O)(O)O)[C@@H](OP(=O)(O)OP(=O)(O)O)[C@H](OP(=O)(O)O)[C@H]1OP(=O)(O)O` [1PP-InsP5, 1-diphosphoinositol pentakisphosphate] as the molecule, how does the “Levels in mammalian cells” value read?
A: The value was 0.02 to 0.1 µM.

Q: With `O=P(O)(O)O[C@@H]1[C@@H](OP(=O)(O)O)[C@H](OP(=O)(O)OP(=O)(O)O)[C@@H](OP(=O)(O)O)[C@H](OP(=O)(O)OP(=O)(O)O)[C@@H]1OP(=O)(O)O` [1,5(PP)2-InsP4, bis-1,5-diphosphoinositol tetrakisphosphate] as the molecule, how does the “Levels in mammalian cells” value read?
A: The value was 0.1 to 0.5 µM.
